We go through one compound from patent publication US20100048488A1, “IMMUNOMODULATORY PEPTIDES” (Syntonix Pharmaceuticals, Inc., priority 2008, published 2010).

Amino acid sequences for entries named in this document (tags omitted). Residues count along the entry.
UniProt P55899, 24-297 limits assumed: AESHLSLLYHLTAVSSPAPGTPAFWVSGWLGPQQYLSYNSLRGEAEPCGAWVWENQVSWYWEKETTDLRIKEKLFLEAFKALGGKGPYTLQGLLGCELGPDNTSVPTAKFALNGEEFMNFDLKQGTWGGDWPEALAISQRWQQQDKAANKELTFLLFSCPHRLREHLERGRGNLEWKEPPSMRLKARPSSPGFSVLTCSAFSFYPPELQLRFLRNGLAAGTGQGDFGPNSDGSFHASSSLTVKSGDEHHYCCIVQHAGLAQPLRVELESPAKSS

By IC50 is commonly meant the concentration needed to halve the response being measured. The low end stands for greater potency, the high end for weaker potency.

The experiment has as its target T1, soluble human FcRn (shFcRn) (Homo sapiens, UniProt P55899).
T1 construct: made in house; host or cells: Chinese hamster ovary (CHO) cells, glutamine synthetase expression system
As to the kind of experiment: Peptide-IgG competition ELISA. Format: binding. The procedure: The wells were coated with 100 μl/well of 1 μg/ml biotinylated-shFcRn in Buffer A. The plate was sealed and incubated at 37° C. for 2 hours. Afterwards, the plate was washed with 200 μl/well of Buffer B (Buffer B: 100 mM MES pH 6, 150 mM NaCl, 0.5% BSA IgG-free (Jackson ImmunoResearch, West Grove, Pa.), 0.05% Tween-20). […] To allow for mixing, the plate was rocked for 2 minutes, sealed and incubated at 37° C. for 2 hours. […] The plate was covered, incubated for 30 minutes at room temperature and washed 4 times with 200 μl/well of ice-cold buffer B. SureBlue TMB substrate solution (100 μl/well, KPL, Gaithersburg, Md.) was added and the plate was allowed to incubate at room temperature until color developed, which took 5 to 10 minutes. Once color developed, 100 μl/well of TMB stop solution (KPL, Gaithersburg, Md.) was added and the absorbance was measured at 450 nm.
(In general: In an ELISA, binding on a coated surface is turned into a signal by an enzyme label.)

As for `CC(C)C[C@H]1C(=O)N[C@@H](Cc2ccc(O)cc2)C(=O)N2CCC[C@H]2C(=O)N[C@H](C(N)=O)CSSC(C)(C)[C@H](NC(=O)[C@H](Cc2ccccc2)NC(=O)[C@H](CCCNC(=N)N)NC(=O)CCC(=O)N[C@@H](CCCNC(=N)N)C(=O)N[C@@H](Cc2ccccc2)C(=O)N[C@@H]2C(=O)N[C@@H]([C@@H](C)O)C(=O)NCC(=O)N[C@@H](Cc3c[nH]cn3)C(=O)N[C@@H](Cc3ccccc3)C(=O)NCC(=O)N(C)CC(=O)N(C)[C@@H](CC(C)C)C(=O)N[C@@H](Cc3ccc(O)cc3)C(=O)N3CCC[C@H]3C(=O)N[C@H](C(N)=O)CSSC2(C)C)C(=O)N[C@@H]([C@@H](C)O)C(=O)NCC(=O)N[C@@H](Cc2c[nH]cn2)C(=O)N[C@@H](Cc2ccccc2)C(=O)NCC(=O)N(C)CC(=O)N1C` [Peptide No. 283], the IC50 is 2.4 nM.
